Results are given in words; binding and its absence hold for the method and conditions named.
Legend:
[1] = target: TRIAD3A-RBR (human) (UniProt Q9NWF9); assay: SEC-SAXS; in-line SEC-SAXS, Bio-SEC 3 (Agilent) column, 25 mM Hepes pH 7.5, 150 mM NaCl, 0.5 mM TCEP, 25 °C; samples loaded at about 200 μM (HHARI samples 46–51 μM); both purified
[2] = target: UbcH5A (UniProt P51668); assay: condition: 25–30 μM E2 in the cell, 250–300 μM RBR in the syringe; ITC; E2 or E2~Ub in the cell at 25–30 μM, RBR in the syringe at 250–300 μM; 293 K; 25 mM Hepes pH 7.5, 150 mM NaCl, 0.5 mM TCEP; 1:1 binding model; both purified

By UniProt entry, the sequences of proteins in these tests, tags left out. Where a name states a change or a piece, a line headed by the entry shows the natural chain unless it says otherwise. Residues count along the entry.
UniProt Q9NWF9, residues 510-801: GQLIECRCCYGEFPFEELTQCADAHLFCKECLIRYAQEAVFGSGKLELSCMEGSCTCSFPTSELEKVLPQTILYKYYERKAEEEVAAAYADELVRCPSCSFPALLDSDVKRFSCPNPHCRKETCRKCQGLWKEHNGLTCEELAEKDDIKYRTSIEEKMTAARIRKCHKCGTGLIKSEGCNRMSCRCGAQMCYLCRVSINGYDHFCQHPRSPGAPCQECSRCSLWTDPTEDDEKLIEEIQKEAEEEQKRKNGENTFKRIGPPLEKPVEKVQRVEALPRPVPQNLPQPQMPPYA
UniProt P51668: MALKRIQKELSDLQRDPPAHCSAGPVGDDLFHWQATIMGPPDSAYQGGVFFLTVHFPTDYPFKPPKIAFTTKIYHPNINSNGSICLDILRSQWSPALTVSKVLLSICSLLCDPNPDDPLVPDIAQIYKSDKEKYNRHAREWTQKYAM

binding [1]: no binding (tested: 200 μM) | binding [2]: no binding
Substance: TRIAD3A-RBR (from UniProt Q9NWF9-2 510-801) (domain or fragment)

— PMC5758712
